# Assay results reported in the supplement of paper PMC12823440, “Inhibitors supercharge kinase turnover through native proteolytic circuits” (Nature, 2025).
# Chains of the proteins cited; added tags and fusions are not shown. Lines headed by an entry give the natural chain unless they say otherwise; changes in a name come on top.
# UniProt Q14289, whole entry, looked up: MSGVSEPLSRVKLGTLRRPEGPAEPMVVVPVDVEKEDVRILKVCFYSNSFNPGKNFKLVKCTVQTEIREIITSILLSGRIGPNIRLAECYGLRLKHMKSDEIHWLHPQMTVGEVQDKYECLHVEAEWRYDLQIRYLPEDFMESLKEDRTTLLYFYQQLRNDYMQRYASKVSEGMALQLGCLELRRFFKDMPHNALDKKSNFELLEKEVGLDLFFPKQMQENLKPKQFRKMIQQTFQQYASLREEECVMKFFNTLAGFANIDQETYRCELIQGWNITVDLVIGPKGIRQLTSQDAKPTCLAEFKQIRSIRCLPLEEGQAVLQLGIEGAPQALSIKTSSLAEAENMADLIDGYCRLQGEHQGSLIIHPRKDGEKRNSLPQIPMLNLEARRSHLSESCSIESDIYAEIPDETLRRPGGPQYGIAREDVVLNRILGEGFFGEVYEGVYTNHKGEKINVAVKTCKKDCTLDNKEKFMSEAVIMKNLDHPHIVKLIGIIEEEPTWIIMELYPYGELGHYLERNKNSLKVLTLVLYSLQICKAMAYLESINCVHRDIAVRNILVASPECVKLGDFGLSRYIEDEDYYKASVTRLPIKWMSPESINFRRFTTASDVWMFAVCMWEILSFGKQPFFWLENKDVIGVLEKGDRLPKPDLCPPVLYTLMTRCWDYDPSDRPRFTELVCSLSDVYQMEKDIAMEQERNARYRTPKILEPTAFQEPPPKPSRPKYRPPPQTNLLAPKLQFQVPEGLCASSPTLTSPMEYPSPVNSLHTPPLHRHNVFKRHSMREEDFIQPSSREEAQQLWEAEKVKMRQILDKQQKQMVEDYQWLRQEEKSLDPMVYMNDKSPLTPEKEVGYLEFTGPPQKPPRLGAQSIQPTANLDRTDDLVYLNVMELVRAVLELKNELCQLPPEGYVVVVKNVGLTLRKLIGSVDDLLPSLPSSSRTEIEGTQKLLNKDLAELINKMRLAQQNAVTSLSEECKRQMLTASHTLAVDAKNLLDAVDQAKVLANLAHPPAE
# UniProt Q9BRS2: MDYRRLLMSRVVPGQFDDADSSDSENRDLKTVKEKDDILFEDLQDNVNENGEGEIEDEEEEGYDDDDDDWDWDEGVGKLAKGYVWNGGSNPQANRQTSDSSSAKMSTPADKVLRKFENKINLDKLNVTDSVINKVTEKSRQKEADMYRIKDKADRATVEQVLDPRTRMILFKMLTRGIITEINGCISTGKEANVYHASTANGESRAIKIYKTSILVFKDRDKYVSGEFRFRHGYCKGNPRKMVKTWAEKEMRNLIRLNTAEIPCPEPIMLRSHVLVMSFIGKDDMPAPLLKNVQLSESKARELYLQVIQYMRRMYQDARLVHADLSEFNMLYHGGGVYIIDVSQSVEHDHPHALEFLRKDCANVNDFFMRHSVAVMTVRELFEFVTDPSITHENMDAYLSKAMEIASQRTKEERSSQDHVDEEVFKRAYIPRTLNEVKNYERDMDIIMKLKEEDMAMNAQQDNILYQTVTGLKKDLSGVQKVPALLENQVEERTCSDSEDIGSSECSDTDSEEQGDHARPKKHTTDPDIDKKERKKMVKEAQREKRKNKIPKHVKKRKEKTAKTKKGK
# UniProt Q01974, whole entry: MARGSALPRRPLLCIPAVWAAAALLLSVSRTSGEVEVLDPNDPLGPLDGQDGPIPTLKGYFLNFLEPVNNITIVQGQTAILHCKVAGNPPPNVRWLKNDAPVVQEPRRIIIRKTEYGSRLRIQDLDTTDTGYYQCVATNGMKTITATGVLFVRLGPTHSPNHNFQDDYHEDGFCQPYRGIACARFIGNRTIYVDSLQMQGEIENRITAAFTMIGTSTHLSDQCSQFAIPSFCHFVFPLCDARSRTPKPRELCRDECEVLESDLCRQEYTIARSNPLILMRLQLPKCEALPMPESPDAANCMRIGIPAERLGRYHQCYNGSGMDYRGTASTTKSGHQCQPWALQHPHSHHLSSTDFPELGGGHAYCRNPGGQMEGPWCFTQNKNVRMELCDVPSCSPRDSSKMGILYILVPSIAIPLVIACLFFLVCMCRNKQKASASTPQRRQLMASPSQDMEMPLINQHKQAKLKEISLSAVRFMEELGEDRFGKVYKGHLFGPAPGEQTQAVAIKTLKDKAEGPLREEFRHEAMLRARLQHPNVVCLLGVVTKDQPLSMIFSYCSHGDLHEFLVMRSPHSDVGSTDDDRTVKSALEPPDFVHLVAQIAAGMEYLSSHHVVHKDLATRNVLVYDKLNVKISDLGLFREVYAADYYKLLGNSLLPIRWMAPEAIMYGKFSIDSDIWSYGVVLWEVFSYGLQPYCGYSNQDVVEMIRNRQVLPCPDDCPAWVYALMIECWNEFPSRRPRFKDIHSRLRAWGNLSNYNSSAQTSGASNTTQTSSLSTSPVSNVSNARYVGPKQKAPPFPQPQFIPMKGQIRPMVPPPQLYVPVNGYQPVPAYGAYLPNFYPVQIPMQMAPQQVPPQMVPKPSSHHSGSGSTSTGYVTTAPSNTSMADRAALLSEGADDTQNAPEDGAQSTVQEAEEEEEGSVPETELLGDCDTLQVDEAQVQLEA
# UniProt Q15418, whole entry: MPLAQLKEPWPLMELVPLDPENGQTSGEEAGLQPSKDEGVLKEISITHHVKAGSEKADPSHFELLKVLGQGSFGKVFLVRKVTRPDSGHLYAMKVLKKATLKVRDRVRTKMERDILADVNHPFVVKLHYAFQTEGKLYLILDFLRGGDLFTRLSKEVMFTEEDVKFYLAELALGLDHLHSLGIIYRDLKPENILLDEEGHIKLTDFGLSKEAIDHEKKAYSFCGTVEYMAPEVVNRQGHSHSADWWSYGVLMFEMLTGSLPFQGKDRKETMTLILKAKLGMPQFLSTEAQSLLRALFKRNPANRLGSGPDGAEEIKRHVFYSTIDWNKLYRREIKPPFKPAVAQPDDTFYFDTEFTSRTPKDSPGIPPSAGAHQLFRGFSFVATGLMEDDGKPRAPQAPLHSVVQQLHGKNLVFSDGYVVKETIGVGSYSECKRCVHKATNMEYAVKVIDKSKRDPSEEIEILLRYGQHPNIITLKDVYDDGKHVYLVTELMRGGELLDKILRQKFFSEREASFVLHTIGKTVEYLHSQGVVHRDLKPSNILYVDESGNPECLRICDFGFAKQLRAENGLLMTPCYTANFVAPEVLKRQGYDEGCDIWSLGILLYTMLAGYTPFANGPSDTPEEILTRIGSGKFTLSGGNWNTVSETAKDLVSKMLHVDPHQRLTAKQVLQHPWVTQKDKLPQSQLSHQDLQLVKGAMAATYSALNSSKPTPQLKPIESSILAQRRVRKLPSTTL
# UniProt Q9NYA1, whole entry: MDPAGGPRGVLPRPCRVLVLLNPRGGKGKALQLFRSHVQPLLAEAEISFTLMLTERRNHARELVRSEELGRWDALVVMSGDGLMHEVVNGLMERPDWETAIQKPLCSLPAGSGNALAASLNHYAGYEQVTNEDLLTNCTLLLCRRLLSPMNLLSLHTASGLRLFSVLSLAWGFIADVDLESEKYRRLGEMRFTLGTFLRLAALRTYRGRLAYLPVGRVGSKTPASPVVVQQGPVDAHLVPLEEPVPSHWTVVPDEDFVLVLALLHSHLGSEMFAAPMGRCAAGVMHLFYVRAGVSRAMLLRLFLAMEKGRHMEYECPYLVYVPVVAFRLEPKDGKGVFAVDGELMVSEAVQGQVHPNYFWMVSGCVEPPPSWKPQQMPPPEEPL
# UniProt Q9Y6E0: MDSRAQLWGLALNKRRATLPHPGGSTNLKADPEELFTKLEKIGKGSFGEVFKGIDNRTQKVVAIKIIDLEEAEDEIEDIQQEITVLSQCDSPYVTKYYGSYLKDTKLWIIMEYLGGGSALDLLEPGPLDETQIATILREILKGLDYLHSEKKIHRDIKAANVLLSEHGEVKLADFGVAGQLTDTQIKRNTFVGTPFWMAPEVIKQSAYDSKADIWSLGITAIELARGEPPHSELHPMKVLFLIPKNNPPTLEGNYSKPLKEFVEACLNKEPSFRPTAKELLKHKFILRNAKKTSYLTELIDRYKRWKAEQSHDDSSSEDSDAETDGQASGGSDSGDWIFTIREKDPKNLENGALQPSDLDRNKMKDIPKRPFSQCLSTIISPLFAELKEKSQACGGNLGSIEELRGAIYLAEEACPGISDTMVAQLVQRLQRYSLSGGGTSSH
# UniProt Q15208: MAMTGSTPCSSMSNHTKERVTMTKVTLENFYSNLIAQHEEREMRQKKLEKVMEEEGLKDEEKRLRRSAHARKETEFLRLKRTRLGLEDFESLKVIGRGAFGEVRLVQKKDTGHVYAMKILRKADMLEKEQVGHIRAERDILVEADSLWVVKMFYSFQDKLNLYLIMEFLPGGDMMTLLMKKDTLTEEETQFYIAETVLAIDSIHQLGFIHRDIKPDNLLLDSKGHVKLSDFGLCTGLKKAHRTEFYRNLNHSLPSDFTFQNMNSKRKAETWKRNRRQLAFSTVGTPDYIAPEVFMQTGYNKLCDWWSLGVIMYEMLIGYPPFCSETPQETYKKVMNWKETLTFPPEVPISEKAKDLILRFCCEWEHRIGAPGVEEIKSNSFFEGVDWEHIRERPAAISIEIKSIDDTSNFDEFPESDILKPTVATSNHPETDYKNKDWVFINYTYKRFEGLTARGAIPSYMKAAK
# UniProt P42680: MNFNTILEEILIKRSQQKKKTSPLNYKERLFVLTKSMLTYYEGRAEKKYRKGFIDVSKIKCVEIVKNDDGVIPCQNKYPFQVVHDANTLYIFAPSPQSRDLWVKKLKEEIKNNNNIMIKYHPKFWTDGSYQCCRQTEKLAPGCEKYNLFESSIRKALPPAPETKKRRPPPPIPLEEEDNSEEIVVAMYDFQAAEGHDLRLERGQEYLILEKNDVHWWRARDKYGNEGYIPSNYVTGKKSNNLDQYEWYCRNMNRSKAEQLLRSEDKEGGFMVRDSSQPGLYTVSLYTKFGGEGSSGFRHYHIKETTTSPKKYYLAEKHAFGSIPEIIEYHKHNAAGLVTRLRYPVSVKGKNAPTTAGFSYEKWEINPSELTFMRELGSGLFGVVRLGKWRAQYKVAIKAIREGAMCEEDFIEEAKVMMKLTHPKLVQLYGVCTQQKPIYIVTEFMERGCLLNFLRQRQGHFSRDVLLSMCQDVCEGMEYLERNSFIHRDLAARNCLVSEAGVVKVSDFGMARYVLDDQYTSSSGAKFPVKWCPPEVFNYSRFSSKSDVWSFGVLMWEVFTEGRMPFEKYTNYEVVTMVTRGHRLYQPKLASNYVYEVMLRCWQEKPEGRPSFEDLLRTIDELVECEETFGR
# UniProt Q6PHR2: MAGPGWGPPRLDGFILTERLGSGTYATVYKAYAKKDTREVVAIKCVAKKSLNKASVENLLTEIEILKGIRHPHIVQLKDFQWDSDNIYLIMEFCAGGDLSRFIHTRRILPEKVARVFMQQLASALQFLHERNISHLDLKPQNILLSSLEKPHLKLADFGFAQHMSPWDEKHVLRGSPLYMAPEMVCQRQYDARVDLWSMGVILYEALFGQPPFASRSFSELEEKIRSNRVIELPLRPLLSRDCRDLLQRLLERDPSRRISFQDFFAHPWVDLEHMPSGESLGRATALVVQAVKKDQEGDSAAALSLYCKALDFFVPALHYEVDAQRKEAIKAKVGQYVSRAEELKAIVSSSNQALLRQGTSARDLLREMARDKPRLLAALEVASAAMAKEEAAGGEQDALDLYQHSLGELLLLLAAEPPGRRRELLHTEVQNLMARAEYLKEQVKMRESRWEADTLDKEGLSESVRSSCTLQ
# Structures can show the parent of a compound that is named as a salt. Some of the results follow. Hit calls seldom repeat between salt and free forms of one compound.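 Kinases, fused to nanoluciferase, were expressed in K562 cells; luminescence was measured every 4 h from 2 to 18 h as percent of control (DMSO = 100%, positive control = 0%). A time point is decreased if signal falls significantly (2 sigma). Hits were called by the authors by a rule that is not shown; the count of time points alone does not decide it.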
# Experiments:
# Test in all cases: number of time points (of 5) at which kinase-Nluc abundance scored as decreased, DMSO-normalised (count); higher = more persistent destabilization
# Conditions in all cases: K562; 2-18 h
# PRKCA = PRKCA (UniProt P17252)
# PTK2 = PTK2 (UniProt Q05397)
# PTK2B = PTK2B (UniProt Q14289)
# RAF1 = RAF1 (UniProt P04049)
# [1] = biological target: RAF1_S257L (clone: RAF1_mut) (UniProt P04049)
# RET = RET (UniProt P07949)
# [2] = biological target: RET_M918T (clone: RET_mut) (UniProt P07949)
# RIOK1 = RIOK1 (UniProt Q9BRS2)
# RIPK1 = RIPK1 (UniProt Q13546)
# RIPK2 = RIPK2 (UniProt O43353)
# ROR2 = ROR2 (UniProt Q01974)
# RPS6KA1 = RPS6KA1 (UniProt Q15418)
# SPHK1 = SPHK1 (UniProt Q9NYA1)
# SRC = SRC (UniProt P12931)
# STK24 = STK24 (UniProt Q9Y6E0)
# STK38 = STK38 (UniProt Q15208)
# TEC = TEC (UniProt P42680)
# TYK2 = TYK2 (UniProt P29597)
# ULK3 = ULK3 (UniProt Q6PHR2)
# SYK = SYK (UniProt P43405)
SMILES,number of time points (PRKCA),number of time points (PTK2),number of time points (PTK2B),number of time points (RAF1),number of time points [1],number of time points (RET),number of time points [2],number of time points (RIOK1),number of time points (RIPK1),number of time points (RIPK2),number of time points (ROR2),number of time points (RPS6KA1),number of time points (SPHK1),number of time points (SRC),number of time points (STK24),number of time points (STK38),number of time points (TEC),number of time points (TYK2),number of time points (ULK3),number of time points (SYK)
COc1ccc2c(NC(=O)Nc3cccc(C(F)(F)F)n3)ccnc2c1 (10 µM),0,0,0,0,0,0,0,0,0,0,0,0,0,0,0,0,0,0,0,–
CN(c1ncccc1CNc1nc(Nc2ccc3c(c2)CC(=O)N3)ncc1C(F)(F)F)S(C)(=O)=O (2.5 µM),0,–,–,0,2,0,1,2,2,0,0,0,0,0,0,0,0,0,0,0
C=CC(=O)Nc1ccc2ncnc(Nc3cccc(Br)c3)c2c1 (10 µM),0,0,0,3,0,0,0,0,3,0,0,0,0,0,0,0,3,0,2,0
COc1cc(Nc2ncc3c(n2)-c2ccc(Cl)cc2C(c2c(F)cccc2OC)=NC3)ccc1C(=O)O [Alisertib] (2.5 µM),0,0,0,0,0,–,–,0,0,0,0,0,0,0,0,0,0,0,0,–
Cc1ccc(NC(=O)Nc2nnc(Sc3ncnc4cc(OCCCN5CCOCC5)ccc34)s2)cc1 (10 µM),0,0,0,0,0,–,–,0,0,0,0,0,0,0,0,0,0,0,0,0
CNC(=O)c1ccccc1Nc1nc(Nc2ccc(N3CCOCC3)cc2OC)ncc1Cl (2.5 µM),0,0,0,0,0,–,–,0,0,0,0,0,0,0,0,0,0,0,0,0
Cc1c(Cn2c(C)nc3c(C(=O)O)cc(N4CCOCC4)cc32)cccc1C(F)(F)F (10 µM),0,0,0,0,–,0,0,–,–,–,0,0,0,0,0,0,0,0,0,0
O=C1Nc2ccccc2/C1=C/c1ccc(F)cc1 (10 µM),0,0,0,0,0,0,0,0,0,0,0,0,0,0,0,0,0,0,0,0
CCc1nc(-c2cccc(C)c2)c(-c2ccnc(NC(=O)c3ccccc3)c2)s1 (10 µM),0,0,–,0,0,0,0,0,0,0,0,0,0,0,0,0,0,0,0,0
COc1cc(OC)cc(-c2cc3cnc(N)nc3nc2NC(=O)NC(C)(C)C)c1 (10 µM),0,0,0,0,0,0,0,0,0,0,0,0,0,0,0,0,0,0,0,0
O=C1c2ccccc2-c2n[nH]c3cccc1c23 (10 µM),0,0,0,0,0,0,0,0,0,0,0,0,0,0,0,0,0,0,0,–
COc1c(CC=C(C)C)c(O)cc2oc(=O)c(-c3ccc(O)cc3O)cc12 [Glycycoumarin] (10 µM),0,0,0,0,0,0,0,0,0,0,0,0,0,0,0,0,0,0,0,0
COCCOc1cc2nccc(Nc3n[nH]c(C)c3C)c2cc1S(=O)(=O)C(C)(C)C [RIP2 kinase inhibitor 2] (2.5 µM),0,0,0,0,0,0,0,0,0,–,0,0,0,0,0,0,0,0,0,0
Cc1ccc2c(Nc3cccc(OC(F)(F)F)c3)nccc2c1Nc1ncccc1-c1ncnc2[nH]cnc12 (10 µM),0,0,0,–,0,0,0,0,0,0,0,0,0,0,0,0,0,0,0,0
CCCS(=O)(=O)Nc1ccc(F)c(C(=O)c2c[nH]c3ncc(Cl)cc23)c1F (10 µM),0,0,0,0,1,0,0,0,0,0,0,0,0,0,0,0,0,3,0,0
Cc1nc(N)sc1-c1ccnc(Nc2ccc(N3CCOCC3)cc2)n1 (10 µM),0,1,0,1,0,0,0,0,1,1,0,0,0,0,0,0,0,4,0,0
COc1nccc(-c2c(-c3ccc(F)cc3)ncn2C2CCC(O)CC2)n1 (configuration not stated) (10 µM),0,0,–,0,0,–,–,0,0,0,0,0,0,0,0,0,0,0,0,0
Cc1cc(C)c(/C=C2\C(=O)Nc3ccccc32)[nH]1 [Semaxinib] (10 µM),0,0,–,0,0,–,–,0,0,0,0,0,0,0,0,0,0,0,0,–
Cc1c[nH]c(/C=C2\C(=O)Nc3ccccc32)c1CCC(=O)O (10 µM),0,0,0,0,0,0,0,0,0,0,0,0,0,0,0,0,0,0,0,0
C[C@H](NC(=O)/C(C#N)=C/c1cccc(Br)n1)c1ccccc1 (2.5 µM),0,3,0,0,0,0,0,0,2,0,0,0,0,0,0,0,0,0,0,0

# Looked up by structure from the entries so far, 2 records:
SMILES,number of time points (PRKCA),number of time points (PTK2),number of time points (PTK2B),number of time points (RAF1),number of time points [1],number of time points (RET),number of time points [2],number of time points (RIOK1),number of time points (RIPK1),number of time points (RIPK2),number of time points (ROR2),number of time points (RPS6KA1),number of time points (SPHK1),number of time points (SRC),number of time points (STK24),number of time points (STK38),number of time points (TEC),number of time points (TYK2),number of time points (ULK3),number of time points (SYK)
Cc1ccc2c(Nc3cccc(OC(F)(F)F)c3)nccc2c1Nc1ncccc1-c1ncnc2[nH]cnc12 (10 µM),0,0,0,–,0,0,0,0,0,0,0,0,0,0,0,0,0,0,0,0
Cc1ccc(NC(=O)Nc2nnc(Sc3ncnc4cc(OCCCN5CCOCC5)ccc34)s2)cc1 (10 µM),0,0,0,0,0,–,–,0,0,0,0,0,0,0,0,0,0,0,0,0

# Following part.

SMILES,number of time points (PRKCA),number of time points (PTK2),number of time points (PTK2B),number of time points (RAF1),number of time points [1],number of time points (RET),number of time points [2],number of time points (RIOK1),number of time points (RIPK1),number of time points (RIPK2),number of time points (ROR2),number of time points (RPS6KA1),number of time points (SPHK1),number of time points (SRC),number of time points (STK24),number of time points (STK38),number of time points (TEC),number of time points (TYK2),number of time points (ULK3),number of time points (SYK)
Cc1ccc(S(=O)(=O)Nc2nc3ccccc3nc2Nc2ccc3nsnc3c2)cc1 [Pilaralisib analogue] (10 µM),1,5,1,0,0,0,0,0,0,0,1,1,0,0,–,0,1,0,5,0
C[C@]1(O)C[C@@H](c2nc(-c3ccc4ccc(-c5ccccc5)nc4c3)c3c(N)nccn32)C1 [Linsitinib] (2.5 µM),0,0,0,0,0,0,0,0,0,0,0,0,0,0,0,0,0,0,0,–
COc1cc2nc(C)nc(N[C@H](C)c3cc(N)cc(C(F)(F)F)c3)c2cc1O[C@H]1CCOC1 (10 µM),0,0,0,1,0,0,0,0,0,0,0,0,0,0,0,0,0,0,0,0
O=c1c(-c2ccc(O)cc2)coc2cc(O)cc(O)c12 [Genistein] (10 µM),0,0,0,0,0,0,0,0,0,0,0,0,0,0,0,0,0,0,0,–
CN(C)C[C@@H]1CCn2cc(c3ccccc32)C2=C(C(=O)NC2=O)c2cn(c3ccccc23)CCO1 [Ruboxistaurin (hydrochloride)] (10 µM),0,0,0,0,0,0,0,0,0,0,0,0,0,0,0,0,0,0,0,0
Cc1cc(CS(=O)(=O)c2ccccc2)cc(OCc2ccc(CN3CCC[C@@H]3CO)cc2)c1 [PF-543 (Citrate)] (10 µM),0,0,0,0,0,0,0,0,0,0,0,0,–,0,0,0,0,0,0,0
"O=c1cc(-c2ccccc2)oc2c(O)c(O)ccc12 [7,8-Dihydroxyflavone] (10 µM)",0,0,0,0,0,0,0,0,0,0,0,0,0,0,0,0,0,0,0,0
Cn1c(=O)c(Oc2ccc(F)cc2F)cc2cnc(NC3CCOCC3)nc21 [R1487 (Hydrochloride)] (10 µM),0,0,–,0,0,0,0,0,0,0,0,0,0,0,0,0,0,0,0,0
CCOc1cc2ncc(-c3cc(N)nc(F)c3)n2cc1S(=O)(=O)C(C)(C)C (10 µM),0,0,0,0,0,0,0,0,0,–,0,0,0,0,0,0,0,0,0,0
CC(=O)NCC(=O)N1[C@@H]2CC[C@H]1c1ccc(Nc3ncc(C(F)(F)F)c(NC4CCC4)n3)cc12 (2.5 µM),0,1,0,3,4,0,3,3,2,1,0,0,0,0,1,0,0,4,5,–
CC(C)(C)c1cc(NC(=O)Nc2ccc(-c3cn4c(n3)sc3cc(OCCN5CCOCC5)ccc34)cc2)no1 [Quizartinib] (10 µM),0,0,0,3,0,4,3,0,–,0,0,0,0,0,0,0,0,0,0,0
CCN(CCCOc1ccc2c(Nc3cc(CC(=O)Nc4cccc(F)c4)[nH]n3)ncnc2c1)CCOP(=O)(O)O [Barasertib] (10 µM),0,0,0,0,0,0,0,0,0,0,0,0,0,0,0,0,0,0,0,0
CC(C)(C#N)c1ccc(N2C(=O)OCc3cnc4ccc(-c5cnc6ccccc6c5)cc4c32)cc1 (2.5 µM),0,0,0,0,0,0,0,0,0,0,0,0,0,0,0,0,0,0,0,0
Cc1cccc(Cn2nc(C3CC3)c3c(NC(=O)c4cnc5cc(OCCN6CCN(C)CC6)ccn45)cccc32)n1 (10 µM),0,0,0,0,0,0,0,0,0,0,0,0,0,0,0,0,0,0,0,0
CN1CCN(c2ccc(Nc3cc(-c4cccc(-n5ccc6cc(C7CC7)cc(F)c6c5=O)c4CO)cn(C)c3=O)nc2)CC1 (2.5 µM),0,0,0,0,0,0,0,0,0,0,0,0,2,0,0,0,0,0,0,0
CC#CC(=O)N[C@H]1CCCN(c2c(F)cc(C(N)=O)c3[nH]c(C)c(C)c23)C1 [Branebrutinib] (10 µM),0,0,0,0,0,0,0,0,0,0,0,0,0,0,0,0,0,0,0,0
Cc1cc(N2CCOCC2)cc2[nH]c(-c3c(NC[C@@H](O)c4cccc(Cl)c4)cc[nH]c3=O)nc12 (10 µM),0,–,0,3,0,–,–,2,0,2,0,0,0,0,0,1,2,4,4,–
CN(C)C(=O)/C(C#N)=C/c1ccc(-c2nc3cnc4[nH]ccc4c3n2C2CCCCC2)o1 (10 µM),0,0,–,0,0,0,0,0,0,0,0,0,0,0,0,0,0,0,0,0
CCN1C(=O)N(c2c(F)c(OC)cc(OC)c2F)Cc2cnc3[nH]c(CN4CCOCC4)cc3c21 [Pemigatinib] (10 µM),0,0,0,0,0,0,0,0,0,0,0,0,0,0,0,0,0,0,0,0
